Laboratory results: patent publication US20090188009A1, “HEAT SHOCK RNA FROM VARIOUS SPECIES AND ITS USE IN ACTIVATION OF HEAT SHOCK TRANSCRIPTION FACTOR, IN TREATMENT OF VARIOUS DISEASES IN ANIMALS AND IN GENERATION OF STRESS-RESISTANT PLANTS” (New York University, published 2009)
No constants are given. Whether binding was seen depends on the method and setting. Some binding calls cover weakened binding; strength is not graded here.

Protein sequences, listed by entry. Tags and fused reporters are not part of them. Lines headed by an entry give the natural chain unless they say otherwise; changes in a name come on top. Chains listed by the source or under a name are the forms on record and can include a tag or linker.
purified recombinant mouse HSF1 (heat shock transcription factor 1), released from GST-HSF1 by thrombin cleavage (P38532, form named): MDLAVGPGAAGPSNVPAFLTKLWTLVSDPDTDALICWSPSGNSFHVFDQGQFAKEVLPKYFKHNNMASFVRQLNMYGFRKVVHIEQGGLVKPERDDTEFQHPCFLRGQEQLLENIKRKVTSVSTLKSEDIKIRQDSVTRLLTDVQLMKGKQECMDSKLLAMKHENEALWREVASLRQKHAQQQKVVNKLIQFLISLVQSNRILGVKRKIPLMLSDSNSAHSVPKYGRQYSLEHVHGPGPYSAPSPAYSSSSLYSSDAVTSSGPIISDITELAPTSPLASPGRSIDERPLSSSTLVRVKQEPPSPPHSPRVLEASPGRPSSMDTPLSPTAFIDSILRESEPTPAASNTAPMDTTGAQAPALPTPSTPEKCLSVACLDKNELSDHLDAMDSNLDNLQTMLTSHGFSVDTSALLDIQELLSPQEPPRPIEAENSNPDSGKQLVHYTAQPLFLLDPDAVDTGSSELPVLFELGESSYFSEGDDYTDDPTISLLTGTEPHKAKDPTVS

How the values were obtained:
[1] = biological target: purified recombinant mouse HSF1 (heat shock transcription factor 1), released from GST-HSF1 by thrombin cleavage (mouse) (UniProt P38532); experiment: self-association (trimer): EGS cross-linking and anti-HSF1 immunoblot; in the presence of eEF1A and HSR1-T3 RNA
[2] = biological target: purified recombinant mouse HSF1 (heat shock transcription factor 1), released from GST-HSF1 by thrombin cleavage (mouse) (UniProt P38532); experiment: self-association (trimer): EGS cross-linking, SDS-PAGE, anti-HSF1 immunoblot; in the presence of the eEF1A-containing fraction
[3] = biological target: purified recombinant mouse HSF1 (heat shock transcription factor 1), released from GST-HSF1 by thrombin cleavage (mouse) (UniProt P38532); experiment: self-association (trimer): EGS cross-linking, SDS-PAGE, immunoblot with HSF1 8487 polyclonal antibody; in the presence of eEF1A and HSR1-T3 RNA
[4] = biological target: purified recombinant mouse HSF1 (heat shock transcription factor 1), released from GST-HSF1 by thrombin cleavage (mouse) (UniProt P38532); experiment: self-association (trimer): EGS cross-linking, SDS-PAGE, immunoblot with anti-HSF1 8487 polyclonal antibody

Measured: binding

purified recombinant mouse HSF1 (heat shock transcription factor 1), released from GST-HSF1 by thrombin cleavage (from UniProt P38532 1-503)
binds: all assays above
